# Data taken from the supplement of paper PMC7024190.
# Where a name gives a salt, the structure may show the parent alone. The list shows a part of the results. This data set is noisy: repeats of one test often differ as much as different tests do.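 Human embryonic kidney cells were transiently transfected with a plasmid bearing a Renilla luciferase gene under the HSV-TK promoter. This first-round screen tests roughly ten thousand compounds for ones that increase reporter output.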
# System: HEK 293FT
# Test: log relative Renilla luciferase luminescence (reporter expression vs reference, reference not stated) (log (base not stated)); higher = higher recombinant reporter expression
# Details: 10 µM; time after transfection 48 h
row,SMILES,log
1,Cn1c(=O)c2c(ncn2C)n(C)c1=O [caffeine],-0.0775
2,CN(C)CCCC1(c2ccc(F)cc2)OCc2cc(C#N)ccc21 (stereo not given) [citalopram hydrobromide],-1.69
3,CCCC(CCC)C(=O)O [valproate sodium],-0.0137
4,Cc1onc(-c2ccccc2)c1C(=O)N[C@@H]1C(=O)N2[C@@H]1SC(C)(C)[C@@H]2C(=O)O [oxacillin sodium],-0.0406
5,COc1cc2c(cc1OC)C(=O)OC2 [metameconine],0.0637
6,OCC(O)CN1CCN(c2ccccc2)CC1 (stereo not given) [dropropizine],0.0965
7,CN(C)CCC(c1ccc(Cl)cc1)c1ccccn1 (stereo not given) [chlorpheniramine maleate],-0.103
8,COc1c2c(cc3occ(-c4ccc5c(c4)OCO5)c(=O)c13)OC(C)(C)C=C2 [methyl robustone],0.00672
9,COC1=CC(=O)C[C@@H](C)[C@]12Oc1c(Cl)c(OC)cc(OC)c1C2=O [griseofulvin],0.0362
10,CCC(=O)NCC[C@@H]1CCc2ccc3c(c21)CCO3 [ramelteon],-0.111
11,"CC[C@H](/C=C/[C@@H](C)[C@H]1CC[C@H]2[C@@H]3CCC4=CC(=O)CC[C@]4(C)[C@H]3CC[C@]12C)C(C)C [stigmasta-4,22-dien-3-one]",0.0546
12,CNC(=O)c1c(I)c(NC(C)=O)c(I)c(C(=O)O)c1I [iothalamic acid],0.2
13,COc1ccc(-c2coc3cc(O)cc(O)c3c2=O)cc1 [biochanin a],0.106
14,CC(=O)O[C@H]1C[C@@H](OC(C)=O)C(C)(C)C2CC(=O)[C@]3(C)C(CC[C@@]4(C)[C@H](C(=O)O)OC(=O)C5OC543)[C@]21C (stereo not given in full) [deacetoxy(7)-7-oxokhivorinic acid],0.201
15,CCCCCCCCCCCCCCCCC(C(=O)O)C(O)(CC(=O)O)C(=O)O (stereo not given) [agaric acid],0.256
16,CCOC(=O)C1=C(C)NC(C)=C(C(=O)OC)C1c1cccc([N+](=O)[O-])c1 (stereo not given) [nitrendipine],0.185
17,CC1(C)S[C@@H]2[C@H](N3C(=O)[C@@H](c4ccccc4)NC3(C)C)C(=O)N2[C@H]1C(=O)O [hetacillin potassium],0.053
18,CCn1cc(C(=O)O)c(=O)c2cc(F)c(N3CCNCC3)cc21 [norfloxacin],0.00408
19,O=c1c(O)c(-c2ccc(O)c(O)c2)oc2c(O[C@@H]3O[C@H](CO)[C@@H](O)[C@H](O)[C@H]3O)c(O)cc(O)c12 [gossypin],0.0707
20,O=C(c1ccc(OCCN2CCCCC2)cc1)c1c(-c2ccc(O)cc2)sc2cc(O)ccc12 [raloxifene hydrochloride],0.398

# A section taken from the entries so far, for reference:
row,SMILES,log
13,COc1ccc(-c2coc3cc(O)cc(O)c3c2=O)cc1 [biochanin a],0.106
14,CC(=O)O[C@H]1C[C@@H](OC(C)=O)C(C)(C)C2CC(=O)[C@]3(C)C(CC[C@@]4(C)[C@H](C(=O)O)OC(=O)C5OC543)[C@]21C (stereo not given in full) [deacetoxy(7)-7-oxokhivorinic acid],0.201
